In series [1] the test system is OBA (Ors Binding Activity), Sephacryl S-300 pool I, ~150-200 kDa. Kind of series: competition with a labelled probe. Conditions: circular ds plasmid competed for OBA binding; protein in an extract; protein details: partially purified HeLa cell activity, native; only the site is given.
Series [2] shares this test system. The series is described as follows: EMSA. The note with it: complex reduced at 50-fold and abolished at 500-fold molar excess of cold A3/4; South-western with labeled A3/4 also run; protein in an extract; protein details: partially purified HeLa cell activity, native; label: 5' end-label (32P). For orientation: In EMSA bound probe runs differently from free probe, usually more slowly.

Construct, isoform or probe ends are uncertain for at least one entry. At least one result comes from cells or an extract, where the contact may be indirect.

Turning to “CCTCAAATGGTCTCCAATTTTCCTTTGGCAAATTCC [circular plasmid containing A3/4 consensus]”, the binding result in series [1] is reported as “binds”.

“CCTCAAATGGTCTCCAATTTTCCTTTGGCAAATTCC (double strand) [A3/4 36-bp alphaconsensus oligonucleotide (ds)]”: in series [2], the binding result is on record as “binds”.
